Experimental data from PubChem BioAssay AID624297 (National Center for Advancing Translational Sciences (NCATS), 2012).
Screen size: about 340,000 compounds; about 6,200 (1.8%) were called active. Inconclusive means that the source gave no clear call. Such entries were picked first, then a sample of the others. The call rests on the fitted dose curve; in most records, active means well fitted activation curve with a large enough effect; inconclusive means small, poorly fitted or top-dose-only effect; inactive means no such curve, though single readings can be large or run the other way. Potencies of inconclusive entries are doubtful fits and often do not repeat.

Assay: A quantitative high throughput screen for small molecules that induce DNA re-replication in SW480 colon adenocarcinoma cells. Further: nearly all actives have a fitted effect of over 55% in size. On re-replication activation: % of control where 0% means no effect.
Details: Hoechst DNA content imaging, 48 h; re-replication activation: at 46.1 µM (top of the series) unless noted
How it was run: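 DNA re-replication was detected as more nuclei of elevated Hoechst intensity after 48 hr exposure to compound (23 nL pinned per well of 250 cells).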
Potency means the concentration at half of the fitted maximal effect.

SMILES | re-replication activation | Potency
O=C(NCCCN1CCCC1=O)c1cn(-c2ccccc2)nc1-c1ccccc1 | inactive: -2.29% | 
Cc1ccc(Nc2ncnc(-n3cccc3)n2)cc1Cl |  | inconclusive: 2.91 µM [activator, full curve]
CC1=C(/C=C/C(C)=C/C=C/C(C)=C/CO)C(C)(C)CCC1 |  | inconclusive: 29.1 µM [activator, single point]
C[C@H](NC(=O)c1nc[nH]c1C(=O)NCc1ccccc1)C(=O)OCc1ccccc1 | inactive: 1.13% | 
CCc1ccc(-c2cc(C)no2)cc1S(=O)(=O)NCCCN1CCN(c2ccccc2)CC1 |  | inconclusive: 20.6 µM [activator, single point]
COc1ccc(CNC(=O)[C@@H](C)NC(=O)[C@@H]2Cc3ccccc3CN2)cc1 |  | inconclusive: 18.4 µM [activator, single point]
Cc1ccc(C(C)C)c(OCc2ccc(C(=O)N/N=C/c3cccc(O)c3O)cc2)c1 |  | inconclusive: 0.731 µM [activator, full curve, poor fit]
NS(=O)(=O)c1ccc(CCNC(=O)C2CCN(c3ncnc4c3nc3n4CCCCC3)CC2)cc1 | inactive: -12.9% | 
CC(=O)c1cccc(-c2ccc(CN3C(CC(C)C)C(=O)N(Cc4cn(CC5CCCCC5)nn4)CCS3(=O)=O)cc2)c1 (stereo unspecified) | inactive: -0.514% | 
C#CCOCCOCCOCCNc1nc(N2CCN(C(=O)CCCCCCCCCCNC(=O)Cn3cc(C[C@@H](C)O)nn3)CC2)nc(N2CCN(C(=O)CCCCCCCCCCNC(=O)[C@@H]([C@H](C)CC)n3cc(CCCCCN)nn3)CC2)n1 |  | inconclusive: 0.651 µM [activator, partial curve, poor fit]
CCOc1ccccc1/C=C(\NC(=O)c1ccccc1)C(=O)NCCC(=O)O |  | inconclusive: 16.4 µM [activator, partial curve, poor fit]
Cc1ccc(C(O)(CNCc2ccccc2)c2ccccc2)cc1 (stereo unspecified) |  | inconclusive: 29.1 µM [activator, single point]
O=C(NC1CCCCC1)c1ccc2c(c1)OCCO2 | inactive: -4.98% | 
Cc1sc2nc(CSCC(=O)NC3(C#N)CCCCC3)[nH]c(=O)c2c1C | inactive: 4.58% | 
O=C(c1ccc(-n2cncn2)c([N+](=O)[O-])c1)N1CCN(S(=O)(=O)c2ccccc2F)CC1 | inactive: -3.86% | 
O=C1NCC(c2ccccc2)C1C(=O)N/N=C\c1ccc(-c2cccc(Cl)c2Cl)o1 (stereo unspecified) | inactive: 0.277% | 
CSc1ncccc1C(=O)NC1CCCc2c1cnn2-c1ccc(C)c(C)c1 (stereo unspecified) |  | inconclusive: 16.4 µM [activator, single point]
COc1ccc(CCc2ccc3ccccc3n2)cc1 | inactive: -1.75% | 
COc1ccc2oc3cc(C)[n+]([O-])c(-c4ccc(C)cc4)c3c2c1 |  | inconclusive: 3.66 µM [activator, single point]
COc1ccc(N(CC(=O)N2CCCCC2)S(=O)(=O)c2c(C)nn(C)c2C)cc1 | inactive: -5.3% | 
CCOc1ccc(-c2nc(C#N)c(N3CCN(C)CC3)o2)cc1 |  | inconclusive: 20.6 µM [activator, partial curve, poor fit]
O=[N+]([O-])c1cc(/C=N/n2cnnc2)ccc1N1CCCC1 | inactive: -169% | 

SMILES | re-replication activation | Potency
CCCn1ncc(CN2CCC(C(=O)Nc3cccc(-c4cccc(F)c4)c3)CC2)c1C |  | inconclusive: 29.1 µM [activator, single point]
O=C(NCC(=O)N1CC=C(c2ccccc2)CC1)c1ccc(OC(F)F)cc1 |  | inconclusive: 29.1 µM [activator, single point]
Cc1ccccc1N(CC(=O)NCc1ccccc1)C(=O)CCC(=O)Nc1nccs1 |  | inconclusive: 0.411 µM [activator, partial curve, poor fit]
Cc1cccc(N2C(=O)C(Oc3ccc(Cl)cc3Cl)C2C=O)c1C (stereo unspecified) |  | inconclusive: 31.6 µM [activator, single point]
COc1ccc(N2C(=NC(=O)C3CCCCC3)SC3CS(=O)(=O)CC32)cc1 (stereo unspecified) |  | inconclusive: 32.6 µM [activator, partial curve, poor fit]
COc1ccc(Br)cc1/C=N/Nc1ccc(S(=O)(=O)Nc2ccccc2C(=O)O)cc1[N+](=O)[O-] | inactive: -2.84% | 
Cc1cc(C(=O)Nc2ccc(S(=O)(=O)N3CCCC3)cc2)cs1 |  | inconclusive: 35.5 µM [activator, partial curve, poor fit]
CN(C)CCCN(C(=O)CCOc1ccccc1)c1nc2ccc(F)cc2s1 |  | inconclusive: 0.58 µM [activator, full curve, poor fit]
CC(C)Cn1c(SCc2nc3ccccc3c(=O)[nH]2)nc2ccccc2c1=O |  | inconclusive: 31.6 µM [activator, partial curve, poor fit]
CCN(CC)CCCNc1nc2ccccc2c2[nH]c3ccc(OC)cc3c12 |  | inconclusive: 6.51 µM [activator, partial curve]
O=C(NCCCN1CCOCC1)C1CCN(S(=O)(=O)c2cccc(C(F)(F)F)c2)CC1 | inactive: -6.12% | 
COc1ccccc1C1C2=C(N=C3SCC(=O)N31)c1ccccc1CC2 (stereo unspecified) | inactive: -6.82% | 
Cc1c(C(=O)N/N=C/c2cccnc2)sc(=S)n1C |  | inconclusive: 20.6 µM [activator, single point]
O=C(c1cc2sccc2n1Cc1ccccc1)N1CCCc2ccccc21 |  | inconclusive: 17.8 µM [activator, single point]
Cc1ccccc1CNC(=O)c1ccccc1SCC(=O)NCc1ccco1 |  | inconclusive: 25.9 µM [activator, single point]
O=C(Cc1ccc(Cl)cc1)NNC(=S)NC(=O)c1cccnc1 | inactive: 0.745% | 
COc1ccc(-c2nc3ccc(C4=C(C)CC(=O)NN4)cc3[nH]2)cc1 |  | active: 18.8 µM
N#CCO/N=C(\c1ccccc1)c1ccncc1 |  | inconclusive: 0.126 µM [activator, full curve, poor fit]
O=C(CSc1nc2nn(-c3ccccc3)c(=O)c-2c2n1CCCCC2)Nc1ccc(OC(F)F)cc1 |  | inconclusive: 10.3 µM [activator, partial curve, poor fit]
Cc1ccc(C(=O)OCC(=O)Nc2ccccc2)cc1NC(=O)c1ccco1 |  | inconclusive: 4.61 µM [activator, full curve]
CC(O)CNc1nc2c(c(=O)n(C)c(=O)n2C)n1C/C=C/c1ccccc1 (stereo unspecified) | inactive: -2.85% | 
O=S(=O)(c1ccccc1)N1CCN(C2CCN(Cc3ccccc3)CC2)CC1 |  | inconclusive: 5.17 µM [activator, single point]

Shown field by field: part of the list above
Cc1sc2nc(CSCC(=O)NC3(C#N)CCCCC3)[nH]c(=O)c2c1C
  re-replication activation: inactive: 4.58%
Cc1cc(C(=O)Nc2ccc(S(=O)(=O)N3CCCC3)cc2)cs1
  Potency: inconclusive: 35.5 µM [activator, partial curve, poor fit]
COc1ccc(-c2nc3ccc(C4=C(C)CC(=O)NN4)cc3[nH]2)cc1
  Potency: active: 18.8 µM

Following part.

SMILES | re-replication activation | Potency
CCN(CC)c1ccc(NC(=O)CCNC(=O)c2ccco2)cc1 |  | inconclusive: 29.1 µM [activator, single point]
CN1CCN(c2ccc(Cl)cc2NC(=O)/C=C/c2ccc(F)cc2)CC1 |  | inconclusive: 23.1 µM [activator, single point]
C=CCNc1oc(-c2ccco2)nc1S(=O)(=O)c1ccccc1 |  | inconclusive: 2.31 µM [activator, partial curve, poor fit]
Cc1cccc(C(=O)N=c2sccn2C)c1[N+](=O)[O-] |  | inconclusive: 29.1 µM [activator, single point]
Cn1c(N)c(C(=O)COC(=O)C2CCN(S(=O)(=O)c3cccs3)CC2)c(=O)n(C)c1=O |  | inconclusive: 2.91 µM [activator, single point]
COc1ccc(Cc2nc3ccc(C(=O)NC(C)c4cnn(C)c4)cc3o2)cc1 (stereo unspecified) | inactive: 0.0795% | 
O=C1c2cccc3c(N4CCCCC4)ccc(c23)C(=O)N1CCO |  | inconclusive: 29.1 µM [activator, partial curve, poor fit]
CCCN1CCN(c2nc(-c3cccs3)nc3ccccc23)CC1 |  | inconclusive: 29.1 µM [activator, partial curve, poor fit]
Cc1cc(C)nc(N/N=C2/CCCC/C2=C\c2ccccc2)n1 |  | inconclusive: 1.16 µM [activator, full curve]
Cc1ccc(C2C(C(=O)c3cc4ccccc4o3)=C(O)C(=O)N2c2cc(C)on2)cc1 (stereo unspecified) |  | inconclusive: 9.2 µM [activator, partial curve, poor fit]
Cc1cc(C)n(CC(=O)N/N=C/c2ccc([N+](=O)[O-])s2)n1 |  | active: 20.6 µM
COc1ccc(CNC(=O)COC(=O)C2CCC(C(C)(C)C)CC2)cc1 (stereo unspecified) |  | inconclusive: 29.1 µM [activator, single point]
O=C(Nc1cc(-c2ccccc2)sc1C(=O)O)c1cccc(F)c1 | inactive: 2.59% | 
C=CCn1c(O)c(N=O)c2cc(C)ccc21 | inactive: 5.46% | 
O=C(O)c1ccccc1OCCN1CCCC1=O | inactive: -6.37% [at 9.22 µM] | 
N#CC(C#N)=C1C=CC=CN1/C(=C\c1ccccc1)C(=O)c1cccs1 |  | inconclusive: 14.6 µM [activator, partial curve, poor fit]
CC(=O)c1cccc(NC(=O)c2sc3nc4n(c(=O)c3c2C)CCCC4)c1 |  | active: 9.2 µM
O=C(C1CCC(=O)N(C2CC2)C1)N1CCC(Oc2cccc(F)c2)CC1 (stereo unspecified) |  | inconclusive: 0.092 µM [activator, full curve, poor fit]
CN1CCN(Cc2nc3ccccc3c(=O)n2Cc2nc(-c3ccc([N+](=O)[O-])cc3)cs2)CC1 |  | inconclusive: 29.1 µM [activator, single point]
CCOC(=O)c1c(C)n(CC(O)CN(C)C)c2cc(Br)c(OC)cc12 (stereo unspecified) |  | inconclusive: 20.6 µM [activator, single point]
COc1ccc(C[C@H]2CN3C(=NC[C@@H]3C(C)C)N2CCNC(=O)CCC2CCCCC2)cc1 |  | inconclusive: 16.4 µM [activator, single point]
COc1ccccc1NC(=O)c1cc2c(=O)n(C)c3ccccc3c2n1C |  | inconclusive: 18.4 µM [activator, single point]
